Results as given in patent US20060251650A1 (CHILDREN S MEDICAL CENTER, published 2006).
Results are given in words; binding and its absence hold for the method and conditions named. Some binding calls cover weakened binding; strength is not graded here.

Sequences of proteins named here, by UniProt entry; tags and fusion partners are left off. A change or cut given only in a name is not applied to a line headed by its entry.
UniProt O14786: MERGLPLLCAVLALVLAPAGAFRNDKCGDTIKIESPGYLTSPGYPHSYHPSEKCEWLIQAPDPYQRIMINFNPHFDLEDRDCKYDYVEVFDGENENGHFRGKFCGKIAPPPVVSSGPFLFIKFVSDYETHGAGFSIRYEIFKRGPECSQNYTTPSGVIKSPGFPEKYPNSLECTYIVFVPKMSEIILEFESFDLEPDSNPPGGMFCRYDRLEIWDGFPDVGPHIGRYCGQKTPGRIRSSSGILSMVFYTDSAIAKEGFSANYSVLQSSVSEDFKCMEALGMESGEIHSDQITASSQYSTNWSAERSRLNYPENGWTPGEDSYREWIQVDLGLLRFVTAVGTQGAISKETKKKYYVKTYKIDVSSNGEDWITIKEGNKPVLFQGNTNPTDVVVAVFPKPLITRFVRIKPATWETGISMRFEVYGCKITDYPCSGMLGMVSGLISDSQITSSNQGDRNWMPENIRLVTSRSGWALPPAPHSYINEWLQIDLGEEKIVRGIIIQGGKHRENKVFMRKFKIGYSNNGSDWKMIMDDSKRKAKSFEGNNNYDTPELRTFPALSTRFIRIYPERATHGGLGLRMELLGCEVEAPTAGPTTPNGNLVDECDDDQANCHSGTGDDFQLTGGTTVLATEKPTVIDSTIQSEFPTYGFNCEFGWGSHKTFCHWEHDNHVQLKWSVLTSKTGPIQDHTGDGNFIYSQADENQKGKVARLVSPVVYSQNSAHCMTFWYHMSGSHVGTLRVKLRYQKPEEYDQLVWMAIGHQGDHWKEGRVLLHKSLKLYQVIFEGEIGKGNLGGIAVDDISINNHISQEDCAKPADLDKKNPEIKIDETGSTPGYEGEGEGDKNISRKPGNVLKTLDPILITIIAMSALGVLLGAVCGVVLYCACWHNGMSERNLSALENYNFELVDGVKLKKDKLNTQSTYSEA

Legend:
[1] = target: T1, Human VEGF165R/NP-1 (neuropilin-1) (human, UniProt O14786 22-923); experiment: 125I-collapsin binding to PAE transfectants
[2] = target: T1, Human VEGF165R/NP-1 (neuropilin-1); experiment: 125I-collapsin-1 binding to PAE/NP-1 and PAE/NP-1/KDR cells

binding [1]: binds | binding [2]: binds
B1: Recombinant chick collapsin-1 (semaphorin III) (ligand, UniProt Q90607 23-772, looked up)
chain: QHVKNNVPRLKLSYKEMLESNNIVNFNGLANSSSYHTFLLDEERSRLYVGAKDHIFSFNLVNIKEYQKIVWPVSHSRRDECKWAGKDILRECANFIKVLKTYNQTHLYACGTGAFHPMCTYIEVGSHPEDNIFRMEDSHFENGRGKSPYDPKLLTASLLVDGELYSGTAADFMGRDFAIFRTLGHHHPIRTEQHDSRWLNDPRFISAHLIPESDNPEDDKIYFFFRENAIDGEHTGKATHARIGQICKNDFGGHRSLVNKWTTFLKARLICSVPGPNGIDTHFDELQDVFLMNSKDPKNPIVYGVFTTSSNIFKGSAVCMYSMTDVRRVFLGPYAHRDGPNYQWVPYQGRVPYPRPGTCPSKTFGGFDSTKDLPDEVITFARSHPAMYNPVFPINSRPIMIKTDVDYQFTQIVVDRVDAEDGQYDVMFIGTDIGTVLKVVSIPKETWHELEEVLLEEMTVFREPTVISAMKISTKQQQLYIGSATGVSQLPLHRCDVYGKACAECCLARDPYCAWDGSSCSRYFPTAKRRTRRQDIRNGDPLTHCSDLQHHDNPSGQTLEEKIIYGVENSSTFLECSPKSQRAIVYWQFQKQNDDHKVEIKVDDRMIRTEQGLLLRSLQRRDSGIYFCHAVEHGFIQTLLKVTLEVIDTDHLEELLHKEEDADASKTKDATNSMTPSQKIWYRDFMQLINHPNLNTMDEFCEQVWKRDRKQRRQRPANAQVNTNKWKHLQENKKGRNRRTHEFERAPRSV
modifications: 125I-labelled in the binding studies
